Reference: patent US9079870B2, “Thiol mediated/activated prodrugs of sulfur dioxide (SO2) having anti-bacterial activity” (priority 2012, dated 2015)
Some results were stated once for a whole list of compounds, not compound by compound.

Test system: Mycobacterium tuberculosis H37Rv strain
Assay: Antimycobacterial activity assay (MIC, 7H11 agar)
Format: cell-based
Conditions: text to Table 2b; Mtb H37Rv

## CN(CCc1ccccc1)S(=O)(=O)c1ccc([N+](=O)[O-])cc1[N+](=O)[O-] [Compound 19, N-methyl, N-(2-phenylethyl) 2,4-dinitrophenylsulfonamide]
  MIC: < 1000 mg/L

## O=[N+]([O-])c1ccc(S(=O)(=O)NCCc2ccccc2)c([N+](=O)[O-])c1 [Compound 14, N-(2-phenylethyl) 2,4-dinitrophenylsulfonamide]
  MIC: < 1000 mg/L

## CN(c1ccccc1)S(=O)(=O)c1ccc([N+](=O)[O-])cc1[N+](=O)[O-] [Compound 18, (N-methyl, N-phenyl) 2,4-dinitrophenylsulfonamide]
  MIC: < 1000 mg/L
